PubChem BioAssay AID1259308, NCATS, 2017
Screen: 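Genes whose loss raises luciferase production in HEK293 cells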 (primary screen). Cell system: human HEK293 embryonic kidney cells stably expressing firefly luciferase (HEK-CMV-Luc2-Hygro). Knock-down reagent: single siRNA against human genes, 0.8 pmol siRNA per well. Duration: 72 h. Read-out: 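Luciferase light (ONE-Glo) measured on one replicate plate set and viability (CellTiter-Glo) on the other, scaled to a negative control siRNA, with robust z-scores and luciferase per cell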. Reading the numbers: total luciferase, z-score and total luciferase, % of control: higher = more reporter protein produced; luciferase per cell, z-score: higher = more reporter output per viable cell; viable cells, % of control: higher = more viable cells. Rule for the call: 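An siRNA counts as active if its total luciferase robust z-score exceeds 3; genes with two or more such siRNAs out of three were retested with fresh siRNAs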. Meaning of the calls: active = raised luciferase; inactive = no rise.
Shown is an unselected part of about 59,000 reagents. About 1,510 of them (2.6%) were called active. 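Calls use total luciferase alone and ignore viability, so some active siRNAs may act by altering cell number.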 Unmarked entries are inactive. The numbers tell different reagents against one gene apart.

| Target gene | reagent no. | total luciferase, z-score | total luciferase, % of control | luciferase per cell, z-score | viable cells, % of control |
| --- | --- | --- | --- | --- | --- |
| ABLIM2 | 1 | 0.978 | 101 | 0.383 | 102 |
| ABLIM2 | 2 | -0.524 | 71.5 | -0.725 | 96.6 |
| ABLIM2 | 3 | -2.15 | 39.2 | -1.68 | 68.1 |
| BAD | 1 | -1.99 | 42.3 | -2.32 | 87.1 |
| BAD | 2 | 0.817 | 98.1 | -0.126 | 113 |
| BAD | 3 | 0.267 | 87.2 | -0.71 | 117 |
| RIPPLY2 | 1 | -1.89 | 44.3 | -1.63 | 76 |
| RIPPLY2 | 2 | -1.16 | 58.8 | -0.645 | 77.9 |
| RIPPLY2 | 3 | 0.721 | 96.2 | 0.467 | 95.1 |
| SLC29A2 | 1 | 0.148 | 84.8 | -0.494 | 108 |
| SLC29A2 | 2 | 0.603 | 93.9 | 0.368 | 95.2 |
| SLC29A2 | 3 | 1.69 | 115 | 0.818 | 104 |
| TFE3 | 1 | -0.136 | 79.2 | -0.707 | 107 |
| TFE3 | 2 | -0.516 | 71.6 | -1.06 | 106 |
| TFE3 | 3 | -0.217 | 77.6 | -0.407 | 96.5 |
| MOK | 1 | 0.611 | 94 | 2 | 62.1 |
| MOK | 2 | -1.52 | 51.7 | -1.01 | 75.5 |
| MOK | 3 | -0.329 | 75.4 | -1.07 | 112 |
| SCG3 | 1 | 0.276 | 87.4 | 0.138 | 94.2 |
| SCG3 | 2 | 0.71 | 96 | 0.403 | 96.5 |
| SCG3 | 3 | -0.754 | 66.9 | -0.742 | 90.9 |

Continued; the last 5 above are carried over.
| Target gene | reagent no. | total luciferase, z-score | total luciferase, % of control | luciferase per cell, z-score | viable cells, % of control |
| --- | --- | --- | --- | --- | --- |
| MOK | 2 | -1.52 | 51.7 | -1.01 | 75.5 |
| MOK | 3 | -0.329 | 75.4 | -1.07 | 112 |
| SCG3 | 1 | 0.276 | 87.4 | 0.138 | 94.2 |
| SCG3 | 2 | 0.71 | 96 | 0.403 | 96.5 |
| SCG3 | 3 | -0.754 | 66.9 | -0.742 | 90.9 |
| BNIP5 | 1 | -0.437 | 73.2 | -0.203 | 86.3 |
| BNIP5 | 2 | -0.952 | 62.9 | -0.209 | 74.3 |
| BNIP5 | 3 | -1.66 | 49 | -1.21 | 75.2 |
| ACBD7 | 1 | 1.27 | 107 | 2.78 | 57.6 |
| ACBD7 | 2 | 0.326 | 88.4 | 0.519 | 86.1 |
| ACBD7 | 3 | 0.0707 | 83.3 | -0.0434 | 94.1 |
| IL37 | 1 | 1.65 | 115 | 1.79 | 80 |
| IL37 | 2 | 0.137 | 84.6 | 0.679 | 79.1 |
| IL37 | 3 | 1.29 | 108 | -0.0876 | 123 |
| NUMBL | 1 | 0.126 | 84.4 | -0.248 | 101 |
| NUMBL | 2 | 2.04 | 122 | 1.45 | 93.4 |
| NUMBL | 3 | -0.284 | 76.2 | -0.532 | 98 |
| CRYBA4 | 1 | 0.524 | 92.3 | 0.606 | 87.9 |
| CRYBA4 | 2 | -0.0701 | 80.5 | 0.118 | 87.2 |
| CRYBA4 | 3 | -0.194 | 78 | -0.174 | 91.3 |
| EDC4 | 1 | 0.00671 | 82 | 0.286 | 85 |
| EDC4 | 2 | -1.41 | 53.9 | -0.574 | 70.1 |
| EDC4 | 3 | 2.41 | 130 | 1.77 | 91.1 |
